Measurements: PMC2811323 (The Journal of neuroscience : the official journal of the …, 2009)
“And” between values parts separate entries of the source, which are not always exact repeats. Equal values may be shown once. Read-outs that look alike come from different tables or passages of the source.

Key:
[1] = test system: rat mPFC layer V pyramidal cells; assay: Spontaneous EPSCs in acute rat brain slices; type: cell-based
[2] = test system: mPFC layer V neurons, wildtype (WT) mice; assay: Spontaneous EPSCs in slices from wild-type mice; type: cell-based, mouse
[3] = test system: rat mPFC layer V pyramidal cells; assay: Inward; type: cell-based
[4] = test system: PC12 N21 cells stably expressing human Swedish mutation APP and human M1 muscarinic receptor; settings: 30 μM BQCA with 50 nM CCh, 4 hr

**Q.** With `COc1ccc(Cn2cc(C(=O)[O-])c(=O)c3ccccc32)cc1.[Na+]` [BQCA, Sodium 1-(4-methoxybenzyl)-4-oxo-1,4-dihydroquinoline-3-carboxylate] as the compound, how does the sEPSC amplitude [1] read?
**A.** 136.0 ± 15.3 % control and 108.3 ± 6.6 % control

**Q.** What about the sEPSC amplitude [2] of the same compound?
**A.** 97.3 ± 11.3 % control and 137.2 ± 16.7 % control

**Q.** What about the “Inward current (change in holding current)” value [3] of the same compound?
**A.** 55.07 ± 6.28 pA

**Q.** What about the “Inward current (change in holding current)” value ([3]; 10 μM applied alone, −70 mV, 1 μM TTX) of the same compound?
**A.** 21.54 ± 2.42 pA

**Q.** What about the “APPsα levels in conditioned media” value [4] of the same compound?
**A.** 244 % of vehicle-treated cells

**Q.** And the “CTFα (C83) in cell extracts” value [4]?
**A.** 245 % of vehicle

**Q.** What about the “Decrease in the secretion of Aβ40 peptide” value [4] of the same compound?
**A.** 30%
